Test results as given in the supplement of paper PMC10849652.
The other results are listed elsewhere or left out.

Chains of the proteins cited; added tags and fusions are not shown. Lines headed by an entry give the natural chain unless they say otherwise; changes in a name come on top.
UniProt Q14142: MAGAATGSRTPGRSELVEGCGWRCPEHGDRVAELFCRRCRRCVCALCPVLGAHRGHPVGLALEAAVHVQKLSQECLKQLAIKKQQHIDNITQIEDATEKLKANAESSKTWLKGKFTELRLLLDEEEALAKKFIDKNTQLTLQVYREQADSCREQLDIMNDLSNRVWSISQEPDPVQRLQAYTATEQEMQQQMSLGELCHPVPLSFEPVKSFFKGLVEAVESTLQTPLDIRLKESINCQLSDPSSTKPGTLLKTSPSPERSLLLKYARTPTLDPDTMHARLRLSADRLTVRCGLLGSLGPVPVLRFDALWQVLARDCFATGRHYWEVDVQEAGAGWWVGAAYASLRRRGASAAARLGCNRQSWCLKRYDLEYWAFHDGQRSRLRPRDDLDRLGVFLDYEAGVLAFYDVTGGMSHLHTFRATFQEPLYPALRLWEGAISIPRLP
UniProt Q6ZVM7: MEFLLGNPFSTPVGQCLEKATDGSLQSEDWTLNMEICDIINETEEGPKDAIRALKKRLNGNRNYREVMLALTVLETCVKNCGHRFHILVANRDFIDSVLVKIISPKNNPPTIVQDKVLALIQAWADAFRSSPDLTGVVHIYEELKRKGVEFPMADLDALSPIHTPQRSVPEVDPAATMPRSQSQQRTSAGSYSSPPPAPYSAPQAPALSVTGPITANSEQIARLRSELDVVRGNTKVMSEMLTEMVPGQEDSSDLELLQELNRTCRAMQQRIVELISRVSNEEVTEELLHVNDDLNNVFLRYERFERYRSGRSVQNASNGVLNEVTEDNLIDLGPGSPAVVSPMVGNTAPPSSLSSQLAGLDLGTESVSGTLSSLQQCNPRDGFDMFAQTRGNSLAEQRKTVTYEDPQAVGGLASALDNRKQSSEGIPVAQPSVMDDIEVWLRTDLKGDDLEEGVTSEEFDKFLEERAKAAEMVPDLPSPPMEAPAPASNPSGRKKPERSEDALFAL
UniProt Q13595: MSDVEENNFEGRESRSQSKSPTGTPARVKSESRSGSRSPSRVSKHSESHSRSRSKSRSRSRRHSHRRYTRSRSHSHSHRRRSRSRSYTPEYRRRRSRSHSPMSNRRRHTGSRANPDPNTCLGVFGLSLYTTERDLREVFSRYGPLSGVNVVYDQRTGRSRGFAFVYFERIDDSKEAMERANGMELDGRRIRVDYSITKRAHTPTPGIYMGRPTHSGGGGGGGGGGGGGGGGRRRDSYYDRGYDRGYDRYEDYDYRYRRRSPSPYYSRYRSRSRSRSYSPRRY
UniProt Q8TD43: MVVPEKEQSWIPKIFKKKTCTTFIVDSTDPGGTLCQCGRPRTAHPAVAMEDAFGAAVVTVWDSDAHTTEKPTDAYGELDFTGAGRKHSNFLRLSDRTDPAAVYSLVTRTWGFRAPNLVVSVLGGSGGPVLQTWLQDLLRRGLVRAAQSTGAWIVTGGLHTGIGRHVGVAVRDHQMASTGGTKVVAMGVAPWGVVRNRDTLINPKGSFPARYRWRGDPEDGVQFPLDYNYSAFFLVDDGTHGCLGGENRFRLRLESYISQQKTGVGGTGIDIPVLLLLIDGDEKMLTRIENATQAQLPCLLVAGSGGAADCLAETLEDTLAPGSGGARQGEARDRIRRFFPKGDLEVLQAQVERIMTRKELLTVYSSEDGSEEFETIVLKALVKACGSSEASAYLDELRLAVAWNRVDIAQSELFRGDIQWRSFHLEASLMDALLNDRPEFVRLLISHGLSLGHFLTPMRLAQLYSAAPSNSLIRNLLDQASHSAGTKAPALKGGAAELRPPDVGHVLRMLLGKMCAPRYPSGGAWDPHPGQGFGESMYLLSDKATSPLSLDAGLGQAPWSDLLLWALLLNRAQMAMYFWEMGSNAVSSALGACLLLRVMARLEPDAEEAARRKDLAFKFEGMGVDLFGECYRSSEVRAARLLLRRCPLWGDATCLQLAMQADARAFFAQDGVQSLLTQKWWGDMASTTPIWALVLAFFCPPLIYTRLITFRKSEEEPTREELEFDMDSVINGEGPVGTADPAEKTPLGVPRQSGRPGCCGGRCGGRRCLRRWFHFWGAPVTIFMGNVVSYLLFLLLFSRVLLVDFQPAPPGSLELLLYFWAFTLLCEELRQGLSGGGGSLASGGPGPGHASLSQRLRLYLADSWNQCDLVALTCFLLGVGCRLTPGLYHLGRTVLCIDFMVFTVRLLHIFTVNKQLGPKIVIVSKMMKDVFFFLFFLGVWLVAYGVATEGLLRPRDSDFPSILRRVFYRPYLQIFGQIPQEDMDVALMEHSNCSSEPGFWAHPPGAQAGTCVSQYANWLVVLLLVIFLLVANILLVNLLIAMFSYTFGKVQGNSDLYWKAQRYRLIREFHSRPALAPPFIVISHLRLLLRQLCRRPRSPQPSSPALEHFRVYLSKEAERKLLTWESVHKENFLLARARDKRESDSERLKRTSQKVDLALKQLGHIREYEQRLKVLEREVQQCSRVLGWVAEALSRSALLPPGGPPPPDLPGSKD
UniProt Q8WV44: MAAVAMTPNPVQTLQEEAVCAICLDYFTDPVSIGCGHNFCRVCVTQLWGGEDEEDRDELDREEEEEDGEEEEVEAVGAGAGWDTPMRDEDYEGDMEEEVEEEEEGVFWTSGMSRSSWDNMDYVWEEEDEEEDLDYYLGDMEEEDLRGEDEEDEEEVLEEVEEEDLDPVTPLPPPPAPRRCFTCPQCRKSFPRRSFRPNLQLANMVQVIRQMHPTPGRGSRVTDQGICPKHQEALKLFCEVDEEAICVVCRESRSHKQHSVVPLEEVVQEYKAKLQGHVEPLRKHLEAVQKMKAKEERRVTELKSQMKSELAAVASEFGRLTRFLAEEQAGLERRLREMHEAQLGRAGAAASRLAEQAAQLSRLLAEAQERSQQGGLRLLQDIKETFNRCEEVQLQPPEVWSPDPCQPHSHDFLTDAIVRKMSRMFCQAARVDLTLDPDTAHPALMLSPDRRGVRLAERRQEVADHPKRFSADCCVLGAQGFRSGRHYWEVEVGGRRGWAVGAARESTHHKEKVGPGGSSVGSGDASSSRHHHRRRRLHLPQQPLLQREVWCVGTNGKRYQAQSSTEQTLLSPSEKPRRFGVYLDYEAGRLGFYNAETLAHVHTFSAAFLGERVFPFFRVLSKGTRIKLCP
UniProt Q8TDR0: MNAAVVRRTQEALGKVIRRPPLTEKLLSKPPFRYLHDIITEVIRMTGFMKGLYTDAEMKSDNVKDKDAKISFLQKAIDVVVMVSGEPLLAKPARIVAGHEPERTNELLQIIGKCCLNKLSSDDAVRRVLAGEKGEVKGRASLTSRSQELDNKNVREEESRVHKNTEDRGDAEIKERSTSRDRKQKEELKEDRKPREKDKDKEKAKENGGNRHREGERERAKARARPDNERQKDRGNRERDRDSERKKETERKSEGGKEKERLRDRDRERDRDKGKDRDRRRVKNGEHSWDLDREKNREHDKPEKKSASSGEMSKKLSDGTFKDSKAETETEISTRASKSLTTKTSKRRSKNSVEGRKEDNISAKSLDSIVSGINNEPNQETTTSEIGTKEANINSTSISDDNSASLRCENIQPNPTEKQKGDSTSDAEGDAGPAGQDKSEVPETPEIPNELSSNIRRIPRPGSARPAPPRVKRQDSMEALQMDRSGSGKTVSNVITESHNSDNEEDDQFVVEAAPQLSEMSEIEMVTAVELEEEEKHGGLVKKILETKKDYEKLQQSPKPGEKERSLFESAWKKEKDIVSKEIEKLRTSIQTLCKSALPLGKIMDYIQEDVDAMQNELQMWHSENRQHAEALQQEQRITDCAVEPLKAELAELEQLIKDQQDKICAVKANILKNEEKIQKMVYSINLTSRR
UniProt Q9BW30: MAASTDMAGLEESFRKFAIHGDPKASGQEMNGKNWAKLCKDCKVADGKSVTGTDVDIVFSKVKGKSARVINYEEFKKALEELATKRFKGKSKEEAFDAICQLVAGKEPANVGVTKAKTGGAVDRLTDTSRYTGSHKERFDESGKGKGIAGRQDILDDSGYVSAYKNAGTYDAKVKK
UniProt Q5T2D2: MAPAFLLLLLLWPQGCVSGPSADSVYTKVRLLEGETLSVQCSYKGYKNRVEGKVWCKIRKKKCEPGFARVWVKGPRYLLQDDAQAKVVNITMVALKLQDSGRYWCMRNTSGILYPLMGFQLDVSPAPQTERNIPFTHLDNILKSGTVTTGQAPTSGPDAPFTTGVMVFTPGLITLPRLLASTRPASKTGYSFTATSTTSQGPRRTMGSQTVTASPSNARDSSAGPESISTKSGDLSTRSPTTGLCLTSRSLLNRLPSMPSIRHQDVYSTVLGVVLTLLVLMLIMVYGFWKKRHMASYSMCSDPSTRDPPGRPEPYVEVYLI
UniProt O95271: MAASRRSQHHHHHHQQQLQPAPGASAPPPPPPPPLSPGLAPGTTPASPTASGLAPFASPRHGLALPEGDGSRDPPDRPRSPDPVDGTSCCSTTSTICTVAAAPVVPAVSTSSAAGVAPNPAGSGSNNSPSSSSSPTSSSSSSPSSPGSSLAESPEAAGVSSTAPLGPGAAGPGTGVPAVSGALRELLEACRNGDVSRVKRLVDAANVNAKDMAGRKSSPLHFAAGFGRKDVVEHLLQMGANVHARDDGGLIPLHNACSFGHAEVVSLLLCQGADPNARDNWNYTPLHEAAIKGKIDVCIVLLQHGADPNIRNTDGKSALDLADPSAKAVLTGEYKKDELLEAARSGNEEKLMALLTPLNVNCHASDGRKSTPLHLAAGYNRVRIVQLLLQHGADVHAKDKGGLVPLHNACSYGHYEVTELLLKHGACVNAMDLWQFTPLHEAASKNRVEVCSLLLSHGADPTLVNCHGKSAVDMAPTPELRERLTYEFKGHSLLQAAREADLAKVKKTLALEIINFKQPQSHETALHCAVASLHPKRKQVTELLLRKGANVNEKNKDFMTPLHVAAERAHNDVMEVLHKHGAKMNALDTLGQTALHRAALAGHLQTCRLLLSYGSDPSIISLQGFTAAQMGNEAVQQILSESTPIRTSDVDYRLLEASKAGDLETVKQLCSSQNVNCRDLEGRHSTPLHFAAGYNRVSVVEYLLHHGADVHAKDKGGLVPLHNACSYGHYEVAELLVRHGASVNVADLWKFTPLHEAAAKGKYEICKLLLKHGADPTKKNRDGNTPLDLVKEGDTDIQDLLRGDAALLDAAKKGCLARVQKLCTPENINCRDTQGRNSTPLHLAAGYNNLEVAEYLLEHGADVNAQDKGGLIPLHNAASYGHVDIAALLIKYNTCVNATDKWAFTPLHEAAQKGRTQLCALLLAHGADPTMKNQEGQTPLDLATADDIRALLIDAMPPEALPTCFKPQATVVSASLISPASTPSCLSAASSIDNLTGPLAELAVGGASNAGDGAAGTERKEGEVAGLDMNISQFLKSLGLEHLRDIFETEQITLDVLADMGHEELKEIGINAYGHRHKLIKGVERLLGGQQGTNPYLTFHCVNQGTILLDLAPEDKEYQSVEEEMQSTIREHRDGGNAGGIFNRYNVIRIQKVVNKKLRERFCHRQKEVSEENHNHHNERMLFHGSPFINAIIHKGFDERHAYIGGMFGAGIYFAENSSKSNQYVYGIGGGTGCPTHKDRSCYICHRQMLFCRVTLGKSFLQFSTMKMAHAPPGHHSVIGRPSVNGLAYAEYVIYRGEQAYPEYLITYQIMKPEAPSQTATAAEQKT
UniProt Q6Q0C0: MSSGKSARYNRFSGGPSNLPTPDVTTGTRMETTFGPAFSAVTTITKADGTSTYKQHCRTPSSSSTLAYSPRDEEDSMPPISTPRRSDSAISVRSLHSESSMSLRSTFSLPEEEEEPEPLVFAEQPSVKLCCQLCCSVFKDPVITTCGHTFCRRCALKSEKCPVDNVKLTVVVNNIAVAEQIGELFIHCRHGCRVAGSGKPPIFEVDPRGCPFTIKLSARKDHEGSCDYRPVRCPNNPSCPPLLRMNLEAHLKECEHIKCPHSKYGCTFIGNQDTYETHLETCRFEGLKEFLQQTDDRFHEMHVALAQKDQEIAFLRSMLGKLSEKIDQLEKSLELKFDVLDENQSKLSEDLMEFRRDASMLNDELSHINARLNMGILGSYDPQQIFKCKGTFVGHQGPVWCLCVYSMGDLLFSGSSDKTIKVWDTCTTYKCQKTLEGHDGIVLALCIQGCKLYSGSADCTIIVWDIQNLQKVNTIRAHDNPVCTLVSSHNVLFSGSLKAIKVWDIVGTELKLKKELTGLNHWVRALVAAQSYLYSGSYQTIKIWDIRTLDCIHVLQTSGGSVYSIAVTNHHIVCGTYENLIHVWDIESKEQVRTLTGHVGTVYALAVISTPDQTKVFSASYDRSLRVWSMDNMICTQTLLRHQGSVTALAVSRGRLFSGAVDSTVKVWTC

Key:
Experiment in all cases: log2 fold change, soluble protein after heating vs DMSO (PISA); higher = thermal stabilisation; K562 cells, 10 uM, 30 min; active = over 0.2 and 3.5 SD of the protein, either way, in both replicates (recomputed)
[1] = compound: CC[C@H](C)N1C=C(C2=C(C=C(C=C21)C3=CN=C(C=C3)N4CCNCC4)C(=O)NCC5=C(C=C(NC5=O)C)C)C
How it was run: (§1)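 Quantification of soluble protein used TMTpro 16plex LC-MS/MS, with channel sums equalised. Samples were the supernatant after 21,000xg for 90 min of pooled aliquots from K562 cells (2×10^6 cells/mL) treated with 10 μM compound for 30 min, heated for 3 min over 48°C-58°C, and extracted in PBS with 0.5% NP-40 at 4°C. Values, from duplicates, describe thermal stability against control samples on a log2 fold-change scale.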

epoxomicin = compound: CC[C@H](C)[C@@H](C(=O)N[C@@H]([C@@H](C)O)C(=O)N[C@@H](CC(C)C)C(=O)[C@]1(CO1)C)NC(=O)[C@H]([C@@H](C)CC)N(C)C(=O)C [epoxomicin]
How it was run: as §1

[2] = compound: CN(C)CC(=O)Nc1ccc2[nH]c(=O)c3ccccc3c2c1
How it was run: as §1

[3] = compound: CN1C2=C(C3=C1C(=O)N(N=C3)CC4=CC(=CC=C4)N)SC(=C2)S(=O)C
How it was run: as §1

rosiglitazone = compound: CN(CCOC1=CC=C(C=C1)C[C@H]2C(=O)NC(=O)S2)C3=CC=CC=N3 (racemic) [rosiglitazone]
How it was run: as §1

[4] = compound: CCn1c(C(=O)N(C2CC2)C2CC2)cc2c3c(ncn3C)c(Nc3cc(C)n(C)n3)nc21
How it was run: as §1

[5] = compound: CCn1cc(-c2ccnc3[nH]c(-c4cccc(CN(C)C)c4)cc23)c(-c2ccc(NC(=O)N(C)C)cc2)n1
How it was run: as §1

[6] = compound: CN1CCC(CNc2ccc3ncc(-c4cccc(OC(F)(F)F)c4)n3n2)CC1
How it was run: as §1

volasertib = compound: CC[C@@H]1C(=O)N(C)c2cnc(Nc3ccc(C(=O)N[C@H]4CC[C@H](N5CCN(CC6CC6)CC5)CC4)cc3OC)nc2N1C(C)C [volasertib]
How it was run: as §1

Measured: log2 fold change

TRIM14 (UniProt Q14142)
inactive: [1] -0.214

TOM1L2 (UniProt Q6ZVM7)
inactive: [1] -0.025 | epoxomicin -0.035 | [2] 0.127 | [3] -0.071

TRA2A (UniProt Q13595)
inactive: [1] -0.008 | rosiglitazone 0.274

TRPM4 (UniProt Q8TD43)
inactive: epoxomicin -0.118 | [3] 0.073

TPRA1 (UniProt Q86W33)
inactive: [1] 0.067 | epoxomicin -0.031 | [4] -0.106 | [5] -0.15 | [2] -0.035 | [6] -0.205

TRIM41 (UniProt Q8WV44)
inactive: [2] 0.38

TRAF3IP1 (UniProt Q8TDR0)
inactive: [2] 0.05 | [3] 0.054

TPPP3 (UniProt Q9BW30)
inactive: epoxomicin 0.033

TREML2 (UniProt Q5T2D2)
inactive: [4] 0.039 | rosiglitazone 0.151 | [3] -0.002

TRAPPC2 isoform 3 (UniProt P0DI81)
inactive: volasertib -0.002 | [1] 0.111 | [4] 0.055 | [5] -0.023 | [2] -0.063 | rosiglitazone -0.018 | [3] -0.085 | [6] 0.101

TNKS (UniProt O95271)
inactive: volasertib -0.134 | [3] 0.052

TRAF7 (UniProt Q6Q0C0)
inactive: volasertib -0.034 | epoxomicin 0.148 | [4] -0.059 | [2] -0.056 | rosiglitazone -0.009
